# This is one part of the list.
# Key:
# Assay in all cases: glycan array binding signal (z-score within array); higher = stronger binding
# Details in all cases: glycan notation: IUPAC condensed, linker removed
# [1] = target: Gal(a1-3)Gal(b1-4)GlcNAc(b1-2)Man
# Procedure, shortened: (§1)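 The Consortium for Functional Glycomics database supplied 3228 glycan arrays, of which those lacking an available protein sequence were dropped. The binding signal, a within-array Z-score, was averaged across arrays of the same protein sequence and across linkers. Negative scores can be read as non-binding.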
# [2] = target: Gal(a1-3)Gal(b1-4)GlcNAc(b1-2)Man(a1-3)[Gal(a1-3)Gal(b1-4)GlcNAc(b1-2)Man(a1-6)]Man(b1-4)GlcNAc(b1-4)GlcNAc
# Procedure, shortened: as §1
# [3] = target: Gal(a1-3)Gal(b1-4)GlcNAc(b1-3)GalNAc
# Procedure, shortened: as §1
# [4] = target: Gal(a1-3)Gal(b1-4)GlcNAc(b1-6)GalNAc
# Procedure, shortened: as §1
# [5] = target: Gal(a1-3)Gal(b1-4)[Fuc(a1-3)]GlcNAc
# Procedure, shortened: as §1
# [6] = target: Gal(a1-3)Gal(b1-4)[Fuc(a1-3)]GlcNAc(b1-2)Man(a1-3)[Gal(a1-3)Gal(b1-4)[Fuc(a1-3)]GlcNAc(b1-2)Man(a1-6)]Man(b1-4)GlcNAc(b1-4)GlcNAc
# Procedure, shortened: as §1
# Gal(a1-3)GalNAc = target: Gal(a1-3)GalNAc
# Procedure, shortened: as §1
# [7] = target: Gal(a1-3)[Gal(a1-4)]Gal(b1-4)GlcNAc
# Procedure, shortened: as §1
# [8] = target: Gal(a1-4)Gal(b1-3)GlcNAc(b1-2)Man(a1-3)[Gal(a1-4)Gal(b1-3)GlcNAc(b1-2)Man(a1-6)]Man(b1-4)GlcNAc(b1-4)GlcNAc
# Procedure, shortened: as §1
# Gal(a1-4)Gal(b1-4)Glc = target: Gal(a1-4)Gal(b1-4)Glc
# Procedure, shortened: as §1
# Gal(a1-4)Gal(b1-4)GlcNAc = target: Gal(a1-4)Gal(b1-4)GlcNAc
# Procedure, shortened: as §1
# [9] = target: Gal(a1-4)Gal(b1-4)GlcNAc(b1-2)Man(a1-3)[Gal(a1-4)Gal(b1-4)GlcNAc(b1-2)Man(a1-6)]Man(b1-4)GlcNAc(b1-4)GlcNAc
# Procedure, shortened: as §1
# [10] = target: Gal(a1-4)Gal(b1-4)GlcNAc(b1-3)Gal(b1-4)Glc
# Procedure, shortened: as §1
# Gal(a1-4)GlcNAc = target: Gal(a1-4)GlcNAc
# Procedure, shortened: as §1
# Gal(a1-6)Glc = target: Gal(a1-6)Glc
# Procedure, shortened: as §1
# Gal(b1-2)Gal = target: Gal(b1-2)Gal
# Procedure, shortened: as §1
# Gal(b1-3)Gal = target: Gal(b1-3)Gal
# Procedure, shortened: as §1
# Gal(b1-3)Gal(b1-4)GlcNAc = target: Gal(b1-3)Gal(b1-4)GlcNAc
# Procedure, shortened: as §1
# Gal(b1-3)GalNAc = target: Gal(b1-3)GalNAc
# Procedure, shortened: as §1
# [11] = target: Gal(b1-3)GalNAc(a1-3)[Fuc(a1-2)]Gal(b1-4)Glc
# Procedure, shortened: as §1
# [12] = target: Gal(b1-3)GalNAc(a1-3)[Fuc(a1-2)]Gal(b1-4)GlcNAc
# Procedure, shortened: as §1
# Gal(b1-3)GalNAc(b1-3)Gal = target: Gal(b1-3)GalNAc(b1-3)Gal
# Procedure, shortened: as §1
# [13] = target: Gal(b1-3)GalNAc(b1-3)Gal(a1-4)Gal(b1-4)Glc
# Procedure, shortened: as §1
# [14] = target: Gal(b1-3)GalNAc(b1-4)Gal(b1-4)Glc
# Procedure, shortened: as §1
# [15] = target: Gal(b1-3)GalNAc(b1-4)[Neu5Ac(a2-3)]Gal(b1-4)Glc
# Procedure, shortened: as §1
# Gal(b1-3)GlcNAc = target: Gal(b1-3)GlcNAc
# Procedure, shortened: as §1
# [16] = target: Gal(b1-3)GlcNAc(a1-3)Gal(b1-4)GlcNAc
# Procedure, shortened: as §1
# [17] = target: Gal(b1-3)GlcNAc(a1-6)Gal(b1-4)GlcNAc
# Procedure, shortened: as §1
# Gal(b1-3)GlcNAc(b1-2)Man = target: Gal(b1-3)GlcNAc(b1-2)Man
# Procedure, shortened: as §1
# [18] = target: Gal(b1-3)GlcNAc(b1-2)Man(a1-3)[Gal(b1-3)GlcNAc(b1-2)Man(a1-6)]Man(b1-4)GlcNAc(b1-4)GlcNAc
# Procedure, shortened: as §1
# [19] = target: Gal(b1-3)GlcNAc(b1-2)Man(a1-3)[Gal(b1-3)GlcNAc(b1-2)Man(a1-6)]Man(b1-4)GlcNAc(b1-4)[Fuc(a1-6)]GlcNAc
# Procedure, shortened: as §1
# [20] = target: Gal(b1-3)GlcNAc(b1-2)Man(a1-3)[GlcNAc(b1-4)][Gal(b1-3)GlcNAc(b1-2)Man(a1-6)]Man(b1-4)GlcNAc(b1-4)GlcNAc
# Procedure, shortened: as §1
# [21] = target: Gal(b1-3)GlcNAc(b1-2)[Gal(b1-3)GlcNAc(b1-6)]Man(a1-6)[Gal(b1-3)GlcNAc(b1-2)Man(a1-3)]Man(b1-4)GlcNAc(b1-4)GlcNAc
# Procedure, shortened: as §1
# [22] = target: Gal(b1-3)GlcNAc(b1-3)Gal(b1-3)GlcNAc
# Procedure, shortened: as §1
# [23] = target: Gal(b1-3)GlcNAc(b1-3)Gal(b1-4)Glc
# Procedure, shortened: as §1
# [24] = target: Gal(b1-3)GlcNAc(b1-3)Gal(b1-4)GlcNAc
# Procedure, shortened: as §1
# [25] = target: Gal(b1-3)GlcNAc(b1-3)Gal(b1-4)GlcNAc(b1-2)Man(a1-3)[Gal(b1-3)GlcNAc(b1-3)Gal(b1-4)GlcNAc(b1-2)Man(a1-6)]Man(b1-4)GlcNAc(b1-4)GlcNAc
# Procedure, shortened: as §1
binder,measurement,setting,value
Vd7LysM (Verticillium dahliae) (protein) RRGPEPKYPPAAGTSSYCSYWVDYEGDKSCSRVLEDNVVVLKDFARWNPTVGADCSGIKAGNSYCVEAFGEPEPIEVTTTTRAATTTTQPTATTTTFANGIATPQPTQSGMVTNCNKFHWIAEGVSCSQVISFQKITLADFVKWNPSVKSDCSGMWAGVNVCVGVVGSSTDTAKPTTTAPSNGVVTPQPTQPSMVTNCNKFHWIAKGVTCQQVISYQKISLADFVKWNPSVLSDCSGMWAEVQVCVGVIGSTPTTLATTTTTAGNGVSTPLPTQPGMVTNCAKFHWVAKGVTCNQIYSFQKITLEQFVSYNPTVKSDCSGMQAEVQVCVGLIAGTTPTTTRPPTTTAPGNGVSTPQPTQPGMVTNCAKFHWVAKGVTCNQIYSFQKITLEQFVSFNPTVKSDCTGMQAEVNVCVGLIGGNPTPTQTGNGIATPTPIQPGMVSNCKKFHWIAQGVTCQQVISFQKITLADFVKWNTGVGSDCRTMWAETNVCVGV,glycan array binding signal (z-score),[1],-0.674
same,glycan array binding signal (z-score),[2],-0.003
same,glycan array binding signal (z-score),[3],-0.765
same,glycan array binding signal (z-score),[4],0.551
same,glycan array binding signal (z-score),[5],0.289
same,glycan array binding signal (z-score),[6],-0.432
same,glycan array binding signal (z-score),Gal(a1-3)GalNAc,-0.371
same,glycan array binding signal (z-score),[7],-0.317
same,glycan array binding signal (z-score),[8],0.911
same,glycan array binding signal (z-score),Gal(a1-4)Gal(b1-4)Glc,3.04
same,glycan array binding signal (z-score),Gal(a1-4)Gal(b1-4)GlcNAc,0.037
same,glycan array binding signal (z-score),[9],0.593
same,glycan array binding signal (z-score),[10],-0.7
same,glycan array binding signal (z-score),Gal(a1-4)GlcNAc,0.386
same,glycan array binding signal (z-score),Gal(a1-6)Glc,-1.58
same,glycan array binding signal (z-score),Gal(b1-2)Gal,0.078
same,glycan array binding signal (z-score),Gal(b1-3)Gal,-0.192
same,glycan array binding signal (z-score),Gal(b1-3)Gal(b1-4)GlcNAc,0.537
same,glycan array binding signal (z-score),Gal(b1-3)GalNAc,-0.354
same,glycan array binding signal (z-score),[11],-0.263
same,glycan array binding signal (z-score),[12],1.36
same,glycan array binding signal (z-score),Gal(b1-3)GalNAc(b1-3)Gal,0.702
same,glycan array binding signal (z-score),[13],-0.878
same,glycan array binding signal (z-score),[14],2.86
same,glycan array binding signal (z-score),[15],-0.55
same,glycan array binding signal (z-score),Gal(b1-3)GlcNAc,-0.186
same,glycan array binding signal (z-score),[16],0.094
same,glycan array binding signal (z-score),[17],-0.139
same,glycan array binding signal (z-score),Gal(b1-3)GlcNAc(b1-2)Man,-0.306
same,glycan array binding signal (z-score),[18],-0.135
same,glycan array binding signal (z-score),[19],0.031
same,glycan array binding signal (z-score),[20],-0.536
same,glycan array binding signal (z-score),[21],-0.11
same,glycan array binding signal (z-score),[22],0.352
same,glycan array binding signal (z-score),[23],0.816
same,glycan array binding signal (z-score),[24],0.928
same,glycan array binding signal (z-score),[25],-0.175

# Quoted from above for reference:
binder,measurement,setting,value
Vd7LysM (Verticillium dahliae) (protein) RRGPEPKYPPAAGTSSYCSYWVDYEGDKSCSRVLEDNVVVLKDFARWNPTVGADCSGIKAGNSYCVEAFGEPEPIEVTTTTRAATTTTQPTATTTTFANGIATPQPTQSGMVTNCNKFHWIAEGVSCSQVISFQKITLADFVKWNPSVKSDCSGMWAGVNVCVGVVGSSTDTAKPTTTAPSNGVVTPQPTQPSMVTNCNKFHWIAKGVTCQQVISYQKISLADFVKWNPSVLSDCSGMWAEVQVCVGVIGSTPTTLATTTTTAGNGVSTPLPTQPGMVTNCAKFHWVAKGVTCNQIYSFQKITLEQFVSYNPTVKSDCSGMQAEVQVCVGLIAGTTPTTTRPPTTTAPGNGVSTPQPTQPGMVTNCAKFHWVAKGVTCNQIYSFQKITLEQFVSFNPTVKSDCTGMQAEVNVCVGLIGGNPTPTQTGNGIATPTPIQPGMVSNCKKFHWIAQGVTCQQVISFQKITLADFVKWNTGVGSDCRTMWAETNVCVGV,glycan array binding signal (z-score),Gal(b1-3)GlcNAc(b1-2)Man,-0.306
same,glycan array binding signal (z-score),[18],-0.135
